Laboratory results reported in patent US6784178B2, “Pharmacotherapy for vascular dysfunction associated with deficient nitric oxide bioactivity” (Cornell Research Foundation, Inc., priority 2000, dated 2004).
At least one structure is not confirmed: it was looked up by name or label, or the drawing left a doubt.

Key:
[1] = Example V: chronic oral treatment of man with mild hypertension and coronary artery atherosclerosis; format: in vivo, human; conditions: (6R)-tetrahydrobiopterin 300 mg substituted for L-arginine, combined with N-hydroxy-L-arginine 5 mg/kg every 4 hours
Procedure: He is treated with 5 mg/kg N^ω-hydroxy-L-arginine every 4 hours orally as either free drug or in admixture with antioxidant agents and vitamins (e.g., ascorbate, alpha-tocopherol, vitamin B6, vitamin B12, folate (folic acid), carotenoids, coenzyme Q10, phytoestrogens (including isoflavonoids), selenium, butylated hydroxytoluene (BHT), butylated hydroxyanisole (BHA) and n-3 polyunsaturated fatty acids (PUFA)) with or without L-arginine supplementation (20 mg/kg every 4 hours). The mixture is delivered as a nutriceutical. Blood pressure normalizes to less than 130/80 mm Hg and angiographic evidence indicates atherosclerosis progression is less than 10% additional over the next five years.

[2] = Example IV: chronic oral therapy after stroke; format: in vivo, human; conditions: (6R)-tetrahydrobiopterin 300 mg substituted for L-arginine, combined with N-hydroxy-L-arginine 5 mg/kg every 4 hours
Procedure: A person suffers from type 2 diabetes (adult onset diabetes or insulin resistant diabetes), coronary artery disease and hypertension (a not uncommon composite of conditions), experiences a stroke resulting in acute left-sided paralysis owing to right middle cerebral artery occlusion. Surviving the stroke, the patient is placed on chronic oral therapy with N^ω-hydroxy-L-arginine, 5 mg/kg every 4 hours, or a combination of this with L-arginine, 20 mg/kg every 4 hours.

With `C[C@H](O)[C@H](O)[C@H]1CNc2nc(N)[nH]c(=O)c2N1` [BH4, 5,6,7,8-tetrahydrobiopterin, reference compound] as the compound, how does the “blood pressure after treatment” value [1] read?
Its value is “normalized blood pressure”.

What about the “recurrence of stroke within the next two years” value [2] of the same compound?
Its value is “no recurrence of stroke”.
